{"sequences": {"note": "Chains of the proteins cited; added tags and fusions are not shown.", "UniProt Q14289, whole entry, looked up": "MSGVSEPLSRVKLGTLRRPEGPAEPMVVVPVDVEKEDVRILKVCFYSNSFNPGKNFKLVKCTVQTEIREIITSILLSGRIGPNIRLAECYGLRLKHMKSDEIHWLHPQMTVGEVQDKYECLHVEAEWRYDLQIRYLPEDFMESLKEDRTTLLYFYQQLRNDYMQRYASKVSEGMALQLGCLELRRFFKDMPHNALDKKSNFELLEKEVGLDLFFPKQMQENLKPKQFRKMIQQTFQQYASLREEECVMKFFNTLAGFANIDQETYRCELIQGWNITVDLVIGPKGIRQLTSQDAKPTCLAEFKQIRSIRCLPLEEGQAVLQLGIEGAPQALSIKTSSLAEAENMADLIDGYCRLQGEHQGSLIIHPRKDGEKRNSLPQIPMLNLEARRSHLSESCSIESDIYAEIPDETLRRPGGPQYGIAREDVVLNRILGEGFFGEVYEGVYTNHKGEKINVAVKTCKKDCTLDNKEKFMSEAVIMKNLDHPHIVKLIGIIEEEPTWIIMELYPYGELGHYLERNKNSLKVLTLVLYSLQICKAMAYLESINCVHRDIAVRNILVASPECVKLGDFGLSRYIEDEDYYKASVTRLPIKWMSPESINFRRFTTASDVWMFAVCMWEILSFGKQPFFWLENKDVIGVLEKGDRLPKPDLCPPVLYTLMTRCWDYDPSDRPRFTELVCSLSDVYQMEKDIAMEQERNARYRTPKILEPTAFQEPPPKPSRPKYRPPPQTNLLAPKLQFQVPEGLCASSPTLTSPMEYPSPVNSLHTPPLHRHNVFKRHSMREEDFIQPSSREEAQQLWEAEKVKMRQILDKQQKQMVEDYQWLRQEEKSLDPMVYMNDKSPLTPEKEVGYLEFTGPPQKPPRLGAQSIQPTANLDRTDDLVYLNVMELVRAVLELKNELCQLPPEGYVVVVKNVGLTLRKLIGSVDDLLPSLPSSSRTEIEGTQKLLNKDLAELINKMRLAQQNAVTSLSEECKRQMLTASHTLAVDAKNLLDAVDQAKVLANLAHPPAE"}, "source": "the supplement of paper PMC12823440", "about": "“Inhibitors supercharge kinase turnover through native proteolytic circuits” (Nature, 2025)", "note": "Counter-ions that a name gives are not always drawn. The list shows a part of the results. Hit calls seldom repeat between salt and free forms of one compound.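 Kinases were expressed as nanoluciferase fusions in K562 cells and luminescence was read every 4 h between 2 and 18 h as percent of control, DMSO set to 100% and a positive control to 0%. A time point counts as decreased when the signal drops significantly (2 sigma). The hit call is the authors' own, does not follow from the count of time points alone, and its rule is not shown.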"}
{"biological_target": "PTK2B (UniProt Q14289)", "test": "number of time points (of 5) at which kinase-Nluc abundance scored as decreased, DMSO-normalised (count); higher = more persistent destabilization", "settings": "K562; 2-18 h"}
{"smiles": "C[C@H]1CC[C@]2(NC1)O[C@H]1C[C@H]3[C@@H]4CC[C@H]5C[C@@H](O[C@@H]6O[C@H](CO)[C@H](O[C@@H]7O[C@H](CO)[C@@H](O)[C@H](O[C@@H]8OC[C@@H](O)[C@H](O)[C@H]8O)[C@H]7O[C@@H]7O[C@H](CO)[C@@H](O)[C@H](O)[C@H]7O)[C@H](O)[C@H]6O)CC[C@]5(C)[C@H]4CC[C@]3(C)[C@H]1[C@@H]2C", "note": "[Tomatine] (2.5 µM)", "number of time points": 0}
{"smiles": "CCCCNc1nc(N)c2[nH]c(=O)n(Cc3ccc(C)nc3)c2n1", "note": "(10 µM)", "number of time points": 0}
{"smiles": "C[C@H](CCC(=O)O)C[C@H](C)C[C@H](C)C(=O)/C=C(\\O)[C@H](C)C[C@H](C)C/C=C/[C@@H](C)[C@@H](O)[C@@H](C)[C@@H](O)C[C@@H]1CC[C@@](C)([C@H]2CC[C@@](C)([C@@H](C)O)O2)O1", "note": "[Ionomycin (calcium)] (2.5 µM)", "number of time points": 0}
{"smiles": "CCOC(=O)c1c(/C(C#N)=C\\N)c2ccc(Cl)c(Cl)c2n1C", "note": "(10 µM)", "number of time points": 0}
{"smiles": "CC(=O)OC(C)(C)/C=C/C(=O)[C@](C)(O)[C@H]1[C@H](O)C[C@@]2(C)[C@@H]3CC=C4[C@@H](C=C(O)C(=O)C4(C)C)[C@]3(C)C(=O)C[C@]12C", "note": "[Cucurbitacin E] (2.5 µM)", "number of time points": 0}
{"smiles": "O=C1C=CC[C@@H]2[C@H]3CCCN4CCC[C@@H](CN12)[C@@H]34", "note": "[Sophocarpine (monohydrate)] (2.5 µM)", "number of time points": 0}
{"smiles": "C=CC(=O)Nc1ccc2[nH]c(=O)n(C3CCN(Cc4ccc(-c5nc6cc[nH]c(=O)c6cc5-c5ccccc5)cc4)CC3)c2c1", "note": "[Borussertib] (10 µM)", "number of time points": 0}
{"smiles": "O=C1C=CC[C@@H]2[C@H]3CCCN4CCC[C@@H](CN12)[C@@H]34", "note": "[Sophocarpine] (10 µM)", "number of time points": 0}
{"smiles": "C=CC(=O)N[C@H]1C=C(C)c2c(-c3cnc4ccccc4c3)c3c(N)ncnc3n2C1", "note": "(10 µM)", "number of time points": 0}
{"smiles": "Cn1cc(C2=C(c3cn(C4CCN(Cc5ccccn5)CC4)c4ccccc34)C(=O)NC2=O)c2ccccc21", "note": "[Enzastaurin] (10 µM)", "number of time points": 0}
{"smiles": "CCN1CCN(C(=O)Cc2ccc(Nc3ncc(F)c(Nc4ccc(C(=O)Nc5ccccc5Cl)cc4)n3)cc2)CC1", "note": "(2.5 µM)", "number of time points": 0}
{"smiles": "C[C@H]1CC[C@]2(NC1)O[C@H]1C[C@H]3[C@@H]4CC[C@H]5C[C@@H](O)CC[C@]5(C)[C@H]4CC[C@]3(C)[C@H]1[C@@H]2C", "note": "[Tomatidine (hydrochloride)] (10 µM)", "number of time points": 0}
{"smiles": "O=[N+]([O-])/C=C/c1ccc2c(c1)OCO2", "note": "(2.5 µM)", "number of time points": 0}
{"smiles": "NCCc1cn(S(=O)(=O)c2c(Cl)nc3sccn23)c2ccccc12", "note": "(10 µM)", "number of time points": 0}
{"smiles": "COc1ccc(N(C(=O)Oc2c(C)cccc2C)c2ccnc(Nc3ccc(N4CCN(C)CC4)cc3)n2)c(OC)c1", "note": "(2.5 µM)", "number of time points": 0}
{"smiles": "Cc1ccccc1-n1c(Cn2cnc3c(N)ncnc32)nc2cccc(C)c2c1=O", "note": "(10 µM)", "number of time points": 0}
{"smiles": "Cc1[nH]ncc1-c1cc2nc([C@H]3CC4CCN3CC4)[nH]c(=O)c2s1", "note": "[(R)-Simurosertib] (10 µM)", "number of time points": 0}
{"smiles": "CC1C(=O)OC2C(O)C34C5OC(=O)C3(OC3OC(=O)C(O)C34C(C(C)(C)C)C5O)C12O", "note": "(stereo not drawn) [Ginkgolide C] (10 µM)", "number of time points": 0}
{"smiles": "O=C(/C=C/c1ccccc1)OC[C@H]1O[C@@H](O[C@@H]2OC=C[C@H]3[C@H](O)[C@@H]4O[C@]4(CO)[C@@H]23)[C@H](O)[C@@H](O)[C@@H]1O", "note": "[Picroside I] (10 µM)", "number of time points": 0}
{"smiles": "CC1=C[C@]23C(=O)[C@@H](C=C(CO)[C@@H](O)[C@]2(O)[C@H]1O)[C@H]1[C@@H](C[C@H]3C)C1(C)C", "note": "[Ingenol] (10 µM)", "number of time points": 0}
{"smiles": "O=Cc1cn(Cc2ccc(Cl)cc2)c2ccccc12", "note": "[Oncrasin-1] (10 µM)", "number of time points": 0}
{"smiles": "C[C@@H]1CC[C@H]2[C@@H](C)C(=O)O[C@@H]3O[C@@]4(C)CC[C@@H]1[C@]32OO4", "note": "[Artemisinin] (10 µM)", "number of time points": 0}
{"smiles": "C[C@H](Nc1ncnc2[nH]cnc12)c1nc2ccc(F)cc2c(=O)n1-c1ccccc1", "note": "[Acalisib] (10 µM)", "number of time points": 0}
{"smiles": "O=C1c2ccccc2C(=O)c2c1cccc2-c1cnn(C2CCNCC2)c1", "note": "[PDK4-IN-1 (hydrochloride)] (10 µM)", "number of time points": 0}
{"smiles": "Cc1ccccc1-n1c(Cn2ncc3c(N)ncnc32)nc2cccc(C)c2c1=O", "note": "(10 µM)", "number of time points": 0}
{"smiles": "Nc1ncnc2c1ncn2[C@@H]1O[C@@H]2COP(O)(=S)O[C@H]2[C@H]1O", "note": "(stereo partly drawn) [Sp-cAMPS (sodium salt)] (10 µM)", "number of time points": 0}
{"smiles": "CN(C)C(=O)c1ccc(Cn2c(C(=O)O)cc3c(Br)cc(Sc4ccc(Cl)c(Cl)c4)cc32)cc1", "note": "[Rheb inhibitor NR1] (10 µM)", "number of time points": 0}
{"smiles": "C/C=C(/C)C(=O)O[C@H]1[C@@H]2[C@H](C)C(=O)O[C@@H]2C[C@@H](C)[C@@H]2C=CC(=O)[C@]21C", "note": "[Brevilin A] (2.5 µM)", "number of time points": 0}
